Some entries share one result that the patent states for a list of compounds.
target: DNA-PK (Homo sapiens, UniProt P78527); assay: DNA-PK inhibition assay (radiometric 33P-ATP kinase assay); assay type: biochemical; details: 100 μM ATP; competitive tight-binding fit

Amino acid sequences for entries named in this document (tags omitted).
UniProt P78527, whole entry: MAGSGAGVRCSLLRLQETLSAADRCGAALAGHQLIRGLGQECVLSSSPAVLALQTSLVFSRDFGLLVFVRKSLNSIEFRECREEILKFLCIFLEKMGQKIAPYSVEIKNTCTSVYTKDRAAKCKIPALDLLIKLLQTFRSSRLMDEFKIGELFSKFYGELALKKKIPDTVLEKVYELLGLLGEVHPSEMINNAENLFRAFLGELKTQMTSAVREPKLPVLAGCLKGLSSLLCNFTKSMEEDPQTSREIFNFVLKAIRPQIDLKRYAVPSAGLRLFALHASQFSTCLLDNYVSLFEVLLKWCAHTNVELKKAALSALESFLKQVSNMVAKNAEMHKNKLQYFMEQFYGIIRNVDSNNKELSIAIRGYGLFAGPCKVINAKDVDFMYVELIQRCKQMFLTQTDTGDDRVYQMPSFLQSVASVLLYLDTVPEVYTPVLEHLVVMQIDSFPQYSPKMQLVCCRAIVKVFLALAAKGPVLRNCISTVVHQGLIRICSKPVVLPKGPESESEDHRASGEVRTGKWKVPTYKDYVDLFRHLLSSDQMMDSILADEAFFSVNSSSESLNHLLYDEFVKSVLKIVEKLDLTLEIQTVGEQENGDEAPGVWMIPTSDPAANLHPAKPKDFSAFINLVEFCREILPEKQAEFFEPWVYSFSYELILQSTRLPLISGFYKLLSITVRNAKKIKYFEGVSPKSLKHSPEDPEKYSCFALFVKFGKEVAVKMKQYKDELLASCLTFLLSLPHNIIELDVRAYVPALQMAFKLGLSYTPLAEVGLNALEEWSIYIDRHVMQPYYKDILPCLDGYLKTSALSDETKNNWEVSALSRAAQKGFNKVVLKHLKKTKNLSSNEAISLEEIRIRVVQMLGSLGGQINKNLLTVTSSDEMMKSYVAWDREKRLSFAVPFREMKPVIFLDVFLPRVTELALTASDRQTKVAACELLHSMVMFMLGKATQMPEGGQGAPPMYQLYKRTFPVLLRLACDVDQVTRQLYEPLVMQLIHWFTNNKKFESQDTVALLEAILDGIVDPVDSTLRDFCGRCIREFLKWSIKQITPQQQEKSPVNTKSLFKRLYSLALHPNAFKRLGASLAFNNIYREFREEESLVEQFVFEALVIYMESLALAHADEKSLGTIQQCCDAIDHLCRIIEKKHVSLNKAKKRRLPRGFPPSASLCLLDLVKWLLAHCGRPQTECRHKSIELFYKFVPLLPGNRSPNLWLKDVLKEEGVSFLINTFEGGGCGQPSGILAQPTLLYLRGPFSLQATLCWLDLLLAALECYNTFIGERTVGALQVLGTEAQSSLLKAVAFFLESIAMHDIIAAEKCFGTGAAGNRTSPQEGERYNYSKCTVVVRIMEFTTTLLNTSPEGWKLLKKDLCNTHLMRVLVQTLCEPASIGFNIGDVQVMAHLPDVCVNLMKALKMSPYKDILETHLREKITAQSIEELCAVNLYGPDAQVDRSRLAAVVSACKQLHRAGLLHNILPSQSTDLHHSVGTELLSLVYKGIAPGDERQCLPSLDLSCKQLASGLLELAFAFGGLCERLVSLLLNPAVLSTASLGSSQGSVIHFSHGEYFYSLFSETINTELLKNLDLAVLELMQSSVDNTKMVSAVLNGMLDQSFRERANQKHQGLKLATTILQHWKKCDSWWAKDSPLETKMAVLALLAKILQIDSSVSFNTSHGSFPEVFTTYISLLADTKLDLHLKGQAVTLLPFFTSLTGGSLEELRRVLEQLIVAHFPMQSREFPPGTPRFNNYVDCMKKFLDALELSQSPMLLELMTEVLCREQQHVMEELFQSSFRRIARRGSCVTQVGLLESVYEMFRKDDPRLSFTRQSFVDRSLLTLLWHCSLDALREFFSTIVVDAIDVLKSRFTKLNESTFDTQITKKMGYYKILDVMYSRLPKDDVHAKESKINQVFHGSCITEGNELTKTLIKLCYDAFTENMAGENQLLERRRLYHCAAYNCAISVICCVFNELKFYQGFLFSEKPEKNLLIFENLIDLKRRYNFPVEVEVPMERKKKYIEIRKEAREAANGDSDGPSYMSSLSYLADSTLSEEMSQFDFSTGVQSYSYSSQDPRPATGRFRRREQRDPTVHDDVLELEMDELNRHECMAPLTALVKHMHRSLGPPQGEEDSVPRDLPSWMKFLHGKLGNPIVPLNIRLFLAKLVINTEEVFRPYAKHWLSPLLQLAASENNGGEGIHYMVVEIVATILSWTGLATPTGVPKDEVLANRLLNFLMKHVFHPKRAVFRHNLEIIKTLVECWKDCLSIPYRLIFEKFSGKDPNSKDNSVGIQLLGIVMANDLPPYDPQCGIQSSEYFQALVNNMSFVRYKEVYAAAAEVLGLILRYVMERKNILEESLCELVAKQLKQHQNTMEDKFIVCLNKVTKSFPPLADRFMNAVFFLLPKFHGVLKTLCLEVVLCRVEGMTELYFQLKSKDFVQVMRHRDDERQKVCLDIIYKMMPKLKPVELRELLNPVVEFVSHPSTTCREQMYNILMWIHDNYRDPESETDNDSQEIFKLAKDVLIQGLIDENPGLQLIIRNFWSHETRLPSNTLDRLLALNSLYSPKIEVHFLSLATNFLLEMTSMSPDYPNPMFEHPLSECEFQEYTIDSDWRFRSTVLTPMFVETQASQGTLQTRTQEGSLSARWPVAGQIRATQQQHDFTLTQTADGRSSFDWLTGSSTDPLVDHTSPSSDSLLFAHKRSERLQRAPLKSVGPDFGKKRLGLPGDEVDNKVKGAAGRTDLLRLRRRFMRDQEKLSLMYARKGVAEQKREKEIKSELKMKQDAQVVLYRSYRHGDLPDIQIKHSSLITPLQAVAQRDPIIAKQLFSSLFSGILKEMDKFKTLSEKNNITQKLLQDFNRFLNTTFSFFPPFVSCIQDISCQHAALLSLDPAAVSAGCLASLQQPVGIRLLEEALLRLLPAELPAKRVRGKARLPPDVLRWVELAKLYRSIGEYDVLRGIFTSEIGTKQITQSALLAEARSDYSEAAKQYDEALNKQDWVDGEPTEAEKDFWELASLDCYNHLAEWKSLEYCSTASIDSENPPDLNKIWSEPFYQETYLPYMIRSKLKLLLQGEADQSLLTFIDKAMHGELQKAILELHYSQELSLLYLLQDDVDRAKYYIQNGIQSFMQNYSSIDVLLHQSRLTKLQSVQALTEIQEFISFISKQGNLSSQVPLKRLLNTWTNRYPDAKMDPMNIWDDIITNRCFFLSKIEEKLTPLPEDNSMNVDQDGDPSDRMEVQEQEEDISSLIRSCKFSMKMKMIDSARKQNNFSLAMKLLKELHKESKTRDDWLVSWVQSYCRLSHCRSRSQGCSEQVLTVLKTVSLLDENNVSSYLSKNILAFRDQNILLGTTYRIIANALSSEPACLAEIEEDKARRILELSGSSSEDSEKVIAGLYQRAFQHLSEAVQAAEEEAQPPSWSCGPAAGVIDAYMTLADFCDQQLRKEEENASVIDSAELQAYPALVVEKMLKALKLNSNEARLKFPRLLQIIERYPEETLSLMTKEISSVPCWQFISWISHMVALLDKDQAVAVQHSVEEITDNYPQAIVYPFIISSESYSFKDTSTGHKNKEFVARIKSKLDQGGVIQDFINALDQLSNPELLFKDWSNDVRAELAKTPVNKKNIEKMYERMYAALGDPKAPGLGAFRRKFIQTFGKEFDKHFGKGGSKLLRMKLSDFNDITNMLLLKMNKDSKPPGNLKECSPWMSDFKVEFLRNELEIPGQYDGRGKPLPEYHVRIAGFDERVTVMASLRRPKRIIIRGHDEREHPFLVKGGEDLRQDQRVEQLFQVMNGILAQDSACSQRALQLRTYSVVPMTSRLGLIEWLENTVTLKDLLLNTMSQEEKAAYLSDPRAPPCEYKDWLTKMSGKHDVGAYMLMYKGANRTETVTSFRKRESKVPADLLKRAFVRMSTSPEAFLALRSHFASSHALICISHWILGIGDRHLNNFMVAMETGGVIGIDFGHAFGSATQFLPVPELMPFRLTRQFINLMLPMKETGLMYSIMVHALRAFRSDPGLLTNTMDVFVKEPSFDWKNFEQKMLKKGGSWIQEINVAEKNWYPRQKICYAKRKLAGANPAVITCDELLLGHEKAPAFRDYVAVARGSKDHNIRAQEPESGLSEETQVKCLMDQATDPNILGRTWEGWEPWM

Ki, ≤ 0.3 µM:
CNC(=O)c1ccnc2c([C@H](C)CNc3cc(-c4ccc(CC5CCN(C)CC5)nc4)ncn3)ccc(F)c12 [Compound 992]
COc1ccccc1[C@H](C)CNc1cc(-c2cnc3c(cnn3C)c2)ncn1 [Compound 172]
CNC(=O)c1ccnc2c([C@H](C)CNc3cc(-c4ccnc(C)c4)ncn3)ccc(F)c12 [Compound 903]
COc1ccccc1[C@H](C)CNc1cc(-c2ccc(NCC#N)nc2)ncn1 [Compound 202]
CNC(=O)c1ccnc2c([C@H](C)CNc3cc(-c4cnc5c(c4)OCCN5)ncn3)cccc12 [Compound 817]
COCCNC(=O)c1ccc(-c2cc(NCCc3ccccc3OC)ncn2)cc1 [Compound 6]
COc1ncccc1CCNc1cc(-c2ccc(C)nc2)ncn1 [Compound 51]
CNC(=O)c1ncnc2c([C@H](C)CNc3cc(-c4ccc(F)nc4)ncn3)cccc12 [Compound 1006]
CNC(=O)c1ccc([C@H](C)CNc2cc(-c3cnc4c(ccn4C4COC4)c3)ncn2)c(OC)c1 [Compound 252]
CNC(=O)c1ccnc2c([C@H](C)CNc3cc(-c4cnc(N(C)C5CCN(CC(F)F)CC5)nc4)ncn3)cccc12 [Compound 1060]
CNC(=O)c1ccnc2c([C@H](C)CNc3cc(-c4cc(F)c(OC(C)C)c(F)c4)ncn3)cccc12 [Compound 872]
CNC(=O)c1ccnc2c([C@H](C)CNc3cc(-c4cnc(NC)c(C#N)c4)ncn3)cccc12 [Compound 955]
C[C@H](CNc1cc(-c2cnc3c(cnn3CC(O)CO)c2)ncn1)c1ccnc2c1OCCO2 (single isomer, unassigned) [Compound 492]
Cc1ccc(-c2cc(NCC(C)c3ccc(F)c4ccoc34)ncn2)cn1 (stereo not drawn) [Compound 477]
COc1sccc1C(C)CNc1cc(-c2cnc3c(cnn3CCO)c2)ncn1 (stereo not drawn) [Compound 259]
C[C@H](CNc1cc(-c2ccc(N3CCN(C)CC3)nc2)ncn1)c1ccccc1OC1CC1 [Compound 114]
CNC(=O)c1ccnc2c([C@H](C)CNc3cc(-c4cnc5c(c4)CN(C(C)=O)CC5)ncn3)cccc12 [Compound 815]
CNC(=O)c1ccnc2c([C@H](C)CNc3cc(-c4cnc(CC5CCN(C(C)=O)CC5)nc4)ncn3)cccc12 [Compound 1071]
CNC(=O)c1ccnc2c([C@H](C)CNc3cc(-c4ccc5c(c4)CC(=O)N5C)ncn3)cccc12 [Compound 825]
CNC(=O)c1ccc(C(C)CNc2cc(-c3ccc4c(cnn4CCO)c3C)ncn2)c(OC)c1 (stereo not drawn) [Compound 277]
CNC(=O)c1ccnc2c([C@H](C)CNc3cc(-c4ccc(C(=O)O)s4)ncn3)cccc12 [Compound 775]
COc1ccccc1CCNc1cc(-c2cnc(N(C)C(=O)OC(C)(C)C)nc2)ncn1 [Compound 23]
CNC(=O)c1ccc(C(C)CNc2cc(-c3ccc(OC(C)C)nc3)ncn2)c(OC)c1 (stereo not drawn) [Compound 324]
CNC(=O)c1ccnc2c([C@H](C)CNc3cc(-c4ccc5c(c4)CCO5)ncn3)cccc12 [Compound 842]
CNC(=O)c1ccnc2c([C@H](C)CNc3cc(-c4ccc(CN5CCN(C)CC5)nc4)ncn3)cccc12 [Compound 670]
CCOC(=O)c1cn2c(n1)CN(c1cc(NC[C@@H](C)c3cccc4c(C(=O)NC)ccnc34)ncn1)CC2 [Compound 794]
CNC(=O)c1ccnc2c([C@H](C)CNc3cc(-c4ccnc(C5CCC5)c4)ncn3)cccc12 [Compound 913]
CCNc1ncc(-c2cc(NC[C@@H](C)c3cccc4c(C(=O)NC)ccnc34)ncn2)cn1 [Compound 942]
COc1cscc1C(C)CNc1cc(-c2cnc3c(cnn3CCO)c2)ncn1 (stereo not drawn) [Compound 261]
COc1cc(C(=O)O)sc1C(C)CNc1cc(-c2ccc(C)nc2)ncn1 (stereo not drawn) [Compound 297]
CNC(=O)c1ccc([C@H](C)CNc2cc(-c3ccc(N(C)C)nc3)ncn2)c(OC)c1 [Compound 359]
CNC(=O)c1c(F)cnc2c([C@H](C)CNc3cc(-c4cnc(CC5CCN(CC(F)F)CC5)nc4)ncn3)cccc12 [Compound 1046]
Cc1ccc(-c2cc(NCCc3ccccc3Oc3ccccc3)ncn2)cn1 [Compound 89]
Cc1ccc(-c2cc(NCC(C)c3ccccc3OC3CCOCC3)ncn2)cn1 (stereo not drawn) [Compound 184]
CNC(=O)c1ccnc2c([C@H](C)CNc3cc(-c4cnc(N)nc4)ncn3)cccc12 [Compound 608]
CCNC(=O)Cn1ncc2cc(-c3cc(NCC(C)c4ccc(C(=O)NC)cc4OC)ncn3)cnc21 (stereo not drawn) [Compound 238]
CNC(=O)c1c(F)cnc2c([C@H](C)CNc3cc(-c4csc(-n5cccn5)n4)ncn3)cccc12 [Compound 782]
CNC(=O)c1c(F)cnc2c([C@H](C)CNc3cc(-c4cnc(NCC(=O)N(C)C)nc4)ncn3)cccc12 [Compound 1076]
Cc1ccc(-c2cc(NCC(C)c3ccc(F)c4cccnc34)ncn2)cn1 (stereo not drawn) [Compound 303]
CNC(=O)c1ccnc2c([C@H](C)CNc3cc(-c4ccc(C(=O)N(C)C)s4)ncn3)cccc12 [Compound 777]
CNC(=O)c1ccc([C@H](C)CNc2cc(-c3ccc4c(cnn4CC4CC4)c3)ncn2)c(OC)c1 [Compound 294]
C[C@H](CNc1cc(-c2cnc3c(cnn3CC(O)CO)c2)ncn1)c1ccnc2c1OCC2 (single isomer, unassigned) [Compound 436]
CNC(=O)c1ccnc2c([C@H](C)CNc3cc(-c4ccc(O)nc4)ncn3)cccc12 [Compound 799]
Cc1cc(C)c(O)c(C(C)CNc2cc(-c3ccc(C)nc3)ncn2)c1 (stereo not drawn) [Compound 446]
COc1ccccc1CCNc1cc(-c2cnc3c(ccn3CCC(C)C)c2)ncn1 [Compound 39]
CNC(=O)c1ccnc2c([C@H](C)CNc3cc(-c4cnc5c(c4)CCN5)ncn3)cccc12 [Compound 954]
Cc1ccc(-c2cc(NCCc3cccc4c3OCC4(C)C)ncn2)cn1 [Compound 67]
CNC(=O)CNc1ccc(-c2cc(NC[C@@H](C)c3cccc4c(C(=O)NC)ccnc34)ncn2)cn1 [Compound 632]
CNC(=O)c1ccnc2c([C@H](C)CNc3cc(-c4cnc(C#N)c(OC)c4)ncn3)ccc(F)c12 [Compound 923]
CNC(=O)c1ccc(C(C)CNc2cc(-c3ccc(N4CCN(C(C)=O)CC4)nc3)ncn2)c(OC)c1 (stereo not drawn) [Compound 130]
CNC(=O)c1ccc([C@H](C)CNc2cc(-c3ccc(NC(C)=O)cc3)ncn2)c(OC)c1 [Compound 317]
CCNc1ccc(-c2cc(NC[C@@H](C)c3ccnc4cc(C)oc34)ncn2)cn1 [Compound 573]
COc1ccc(C(=O)O)cc1C(C)CNc1cc(-c2ccc(C)nc2)ncn1 (stereo not drawn) [Compound 267]
CNC(=O)c1c(F)cnc2c([C@H](C)CNc3cc(-c4cnc(C#N)c(OC)c4)ncn3)cccc12 [Compound 918]
CCOc1cc(F)ccc1[C@H](C)CNc1cc(-c2ccc(N3CCN(C)CC3)nc2)ncn1 [Compound 120]
CNC(=O)c1ncnc2c([C@H](C)CNc3cc(-c4ccc(C(=O)NCCC#N)cc4)ncn3)cccc12 [Compound 1017]
CNC(=O)c1c(F)cnc2c([C@H](C)CNc3cc(-c4cnc(NCCNC(C)=O)nc4)ncn3)cccc12 [Compound 1052]
COc1ccccc1CCNc1cc(-c2cnc3c(cnn3C(C)C)c2)ncn1 [Compound 44]
Cc1ccc(-c2cc(NCC(C)c3cc(F)cc4nccnc34)ncn2)cn1 (stereo not drawn) [Compound 403]
COc1ccccc1CCNc1cc(-c2ccnc(C)c2)ncn1 [Compound 19]
CNC(=O)c1c(-n2ccnc2)cnc2c([C@H](C)CNc3cc(-c4ccc(C)nc4)ncn3)cccc12 [Compound 763]
CNC(=O)c1ccnc2c([C@H](C)CNc3cc(-c4ccc(N(C)CC5CC5)nc4)ncn3)cccc12 [Compound 625]
COc1ccccc1[C@H](C)CNc1cc(-c2ccc(N(C)C)nc2)ncn1 [Compound 255]
C[C@H](CNc1cc(-c2cnc3c(cnn3C(C)(C)CO)c2)ncn1)c1ccnc2c1OCCO2 [Compound 544]
CNC(=O)c1ccnc2c([C@H](C)CNc3cc(-c4cnc(OC)c(Cl)c4)ncn3)cccc12 [Compound 949]
COc1ccc(SC)cc1C(C)CNc1cc(-c2ccc(C(N)=O)cc2)ncn1 (stereo not drawn) [Compound 66]
Cc1ccc(-c2cc(NC[C@@H](C)c3ccnc4c3OCCN4)ncn2)cn1 [Compound 660]
CNC(=O)c1c(F)cnc2c([C@H](C)CNc3cc(-c4ccc(N(C)C5CCN(CC(F)(F)F)CC5)nc4)ncn3)cccc12 [Compound 1090]
COc1cc(C(=O)NCC(F)F)ccc1[C@H](C)CNc1cc(-c2ccc(C)nc2)ncn1 [Compound 405]
CCOc1ncc(-c2cc(NC[C@@H](C)c3ccccc3OC)ncn2)cn1 [Compound 125]
CNC(=O)c1ccnc2c([C@H](C)CNc3cc(-c4ccc5ncccc5c4)ncn3)cccc12 [Compound 582]
CNC(=O)c1ccnc2c([C@H](C)CNc3cc(-c4cnc(O)nc4)ncn3)cccc12 [Compound 768]
CCNc1ccc(-c2cc(NC[C@@H](C)c3ccnc4cccnc34)ncn2)cn1 [Compound 514]
COc1ccccc1[C@H](C)CNc1cc(-c2ccc(C)nc2)ncn1 [Compound 55]
COc1ccccc1CCNc1cc(-c2ccc(C(N)=O)cc2)ncn1 [Compound 20]
CNCCNc1ccc(-c2cc(NC[C@@H](C)c3ccnc4c3OCC4)ncn2)cn1 [Compound 483]
CNC(=O)c1ccc([C@H](C)CNc2cc(-c3cn(C4COC4)c4ncccc34)ncn2)c(OC)c1 [Compound 481]
CNC(=O)c1ccnc2c([C@H](C)CNc3cc(-c4cnc(C)nc4)ncn3)ccnc12 [Compound 631]
